The values that follow come from PMC3827166.

Chains of the proteins cited; added tags and fusions are not shown.
UniProt Q9JLT0: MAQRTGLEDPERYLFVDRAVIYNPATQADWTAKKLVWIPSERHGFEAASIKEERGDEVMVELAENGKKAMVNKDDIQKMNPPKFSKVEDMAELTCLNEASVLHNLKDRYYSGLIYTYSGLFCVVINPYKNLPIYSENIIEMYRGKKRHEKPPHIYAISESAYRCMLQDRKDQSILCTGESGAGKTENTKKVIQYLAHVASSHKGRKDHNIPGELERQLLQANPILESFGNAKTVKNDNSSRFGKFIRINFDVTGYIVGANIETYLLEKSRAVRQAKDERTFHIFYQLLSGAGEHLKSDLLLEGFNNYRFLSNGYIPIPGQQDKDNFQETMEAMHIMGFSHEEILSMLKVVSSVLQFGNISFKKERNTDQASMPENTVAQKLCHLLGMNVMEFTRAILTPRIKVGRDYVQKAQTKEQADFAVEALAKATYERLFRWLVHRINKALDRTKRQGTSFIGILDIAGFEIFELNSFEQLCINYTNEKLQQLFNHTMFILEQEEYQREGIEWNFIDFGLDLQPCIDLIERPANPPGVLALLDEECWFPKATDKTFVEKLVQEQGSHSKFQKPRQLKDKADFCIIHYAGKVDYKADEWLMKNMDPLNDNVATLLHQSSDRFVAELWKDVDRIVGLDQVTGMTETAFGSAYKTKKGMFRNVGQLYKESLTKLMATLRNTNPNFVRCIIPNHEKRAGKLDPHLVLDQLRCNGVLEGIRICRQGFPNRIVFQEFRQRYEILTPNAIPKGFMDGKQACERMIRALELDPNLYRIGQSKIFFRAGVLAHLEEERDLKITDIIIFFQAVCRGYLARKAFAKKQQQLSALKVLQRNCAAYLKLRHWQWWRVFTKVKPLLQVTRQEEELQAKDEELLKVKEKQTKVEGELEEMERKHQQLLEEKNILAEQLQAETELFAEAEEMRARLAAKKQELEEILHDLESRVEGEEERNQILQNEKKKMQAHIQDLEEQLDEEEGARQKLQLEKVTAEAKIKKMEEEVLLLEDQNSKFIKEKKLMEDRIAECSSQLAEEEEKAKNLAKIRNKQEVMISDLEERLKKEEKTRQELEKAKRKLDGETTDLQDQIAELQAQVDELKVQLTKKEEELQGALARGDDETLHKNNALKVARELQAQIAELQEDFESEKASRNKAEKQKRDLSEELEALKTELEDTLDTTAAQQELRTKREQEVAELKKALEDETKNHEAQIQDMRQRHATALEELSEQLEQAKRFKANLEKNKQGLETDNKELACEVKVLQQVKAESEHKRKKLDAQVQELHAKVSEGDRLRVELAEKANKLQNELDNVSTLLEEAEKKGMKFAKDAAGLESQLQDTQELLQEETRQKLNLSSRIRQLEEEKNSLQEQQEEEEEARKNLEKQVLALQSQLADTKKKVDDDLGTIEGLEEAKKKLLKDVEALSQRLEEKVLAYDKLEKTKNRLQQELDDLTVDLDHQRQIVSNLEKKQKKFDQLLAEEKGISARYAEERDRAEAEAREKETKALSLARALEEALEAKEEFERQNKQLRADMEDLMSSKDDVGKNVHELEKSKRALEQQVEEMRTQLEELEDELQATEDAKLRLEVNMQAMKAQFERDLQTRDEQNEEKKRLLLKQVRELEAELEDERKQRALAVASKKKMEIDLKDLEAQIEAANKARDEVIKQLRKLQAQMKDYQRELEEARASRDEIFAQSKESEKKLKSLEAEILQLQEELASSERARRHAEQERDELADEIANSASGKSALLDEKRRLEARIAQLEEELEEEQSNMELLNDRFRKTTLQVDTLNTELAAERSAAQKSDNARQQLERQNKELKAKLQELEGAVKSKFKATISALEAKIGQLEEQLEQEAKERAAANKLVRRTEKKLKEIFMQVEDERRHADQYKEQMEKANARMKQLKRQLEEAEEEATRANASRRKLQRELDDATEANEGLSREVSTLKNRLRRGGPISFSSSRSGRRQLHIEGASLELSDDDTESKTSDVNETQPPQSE

No constants are given. Whether binding was seen depends on the method and setting. In cells and extracts the contact can be indirect. Some binding calls cover weakened binding; strength is not graded here.

The target of assay [1] is T1, four-and-a-half LIM protein-1 (FHL1) (rat (endogenous in L6GNR4 cells and E17 rat embryo lower limbs)) (UniProt Q9WUH4).
T1 sequence: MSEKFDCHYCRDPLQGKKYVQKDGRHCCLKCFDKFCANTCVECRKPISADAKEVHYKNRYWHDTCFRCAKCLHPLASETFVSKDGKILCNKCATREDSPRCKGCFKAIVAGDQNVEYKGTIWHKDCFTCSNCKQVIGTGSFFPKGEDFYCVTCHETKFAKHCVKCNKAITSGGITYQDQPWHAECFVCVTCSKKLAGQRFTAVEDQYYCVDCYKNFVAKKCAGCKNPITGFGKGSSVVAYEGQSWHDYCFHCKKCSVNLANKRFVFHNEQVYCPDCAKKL
Description: co-IP; wild-type E17 rat embryo lower limb lysate; immunoprecipitation with anti-FHL1 antibody, Western blot. (In western blotting, separated proteins are transferred to a membrane and probed.)

The target in assay [2] is T1, four-and-a-half LIM protein-1 (FHL1) (rat (endogenous in L6GNR4 cells and E17 rat embryo lower limbs)). Description: co-IP; L6GNR4 cell lysate; immunoprecipitation with anti-Fhl1, anti-Actg1 or anti-Myh10 antibody, Western blot.
The target of assay [3] is non-muscle myosin IIB (Myh10) (rat (endogenous in L6GNR4 cells and E17 rat embryo lower limbs)) (UniProt Q9JLT0). Described as above.

Turning to “non-muscle myosin IIB (Myh10) (from UniProt Q9JLT0 1-1976)”, the binding result in assay [1] and in assay [2] was “binds” throughout.

B1: four-and-a-half LIM protein-1 (FHL1) (protein, UniProt Q9WUH4 1-280)
chain: T1 sequence
As to B1, in assay [3], the binding result is “binds”.
